Experimental data: PubChem BioAssay AID720551 (National Center for Advancing Translational Sciences (NCATS), 2013)
This is a selection; strong and weak results do not stand in their true shares. The source made the active and inactive calls.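 How the source made its calls: active means maximum activity change below -70%; inconclusive means maximum activity change between -70% and -50%; inactive means maximum activity change above -50%.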

Sequences of proteins named here, by UniProt entry; tags and fusion partners are left off. A change or cut given only in a name is not applied to a line headed by its entry.
UniProt Q12809: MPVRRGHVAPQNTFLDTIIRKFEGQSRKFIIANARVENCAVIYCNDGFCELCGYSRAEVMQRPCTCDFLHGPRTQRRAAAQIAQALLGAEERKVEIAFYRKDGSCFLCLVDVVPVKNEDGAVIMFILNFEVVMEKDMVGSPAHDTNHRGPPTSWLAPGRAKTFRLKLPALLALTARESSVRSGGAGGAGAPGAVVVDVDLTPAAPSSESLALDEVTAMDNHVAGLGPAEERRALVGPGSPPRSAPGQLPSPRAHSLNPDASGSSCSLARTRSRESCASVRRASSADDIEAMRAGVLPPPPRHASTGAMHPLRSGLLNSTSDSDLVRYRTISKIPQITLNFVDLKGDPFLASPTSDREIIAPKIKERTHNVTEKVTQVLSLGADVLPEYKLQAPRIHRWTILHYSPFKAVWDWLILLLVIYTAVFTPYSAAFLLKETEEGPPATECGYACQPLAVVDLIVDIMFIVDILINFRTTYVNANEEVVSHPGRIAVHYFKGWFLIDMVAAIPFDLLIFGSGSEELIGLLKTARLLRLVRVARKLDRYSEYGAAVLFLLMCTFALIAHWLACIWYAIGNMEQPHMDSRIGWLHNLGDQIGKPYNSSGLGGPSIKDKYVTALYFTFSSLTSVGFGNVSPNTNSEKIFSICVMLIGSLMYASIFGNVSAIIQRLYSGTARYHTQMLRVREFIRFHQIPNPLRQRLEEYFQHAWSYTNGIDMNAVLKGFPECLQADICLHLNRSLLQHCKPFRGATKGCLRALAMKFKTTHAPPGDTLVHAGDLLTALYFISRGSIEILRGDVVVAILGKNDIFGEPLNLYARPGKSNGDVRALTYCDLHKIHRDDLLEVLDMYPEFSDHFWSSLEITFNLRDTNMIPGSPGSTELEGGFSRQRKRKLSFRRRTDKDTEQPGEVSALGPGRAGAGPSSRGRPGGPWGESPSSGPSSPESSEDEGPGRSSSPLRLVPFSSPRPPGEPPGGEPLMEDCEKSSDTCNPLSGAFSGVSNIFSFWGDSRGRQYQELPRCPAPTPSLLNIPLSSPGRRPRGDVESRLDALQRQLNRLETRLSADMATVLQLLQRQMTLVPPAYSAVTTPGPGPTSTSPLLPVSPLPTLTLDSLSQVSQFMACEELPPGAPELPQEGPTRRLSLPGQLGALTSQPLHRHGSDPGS

Target: Voltage-gated inwardly rectifying potassium channel KCNH2 (Homo sapiens) (UniProt Q12809)
Assay: qHTS for Inhibitors of KCHN2 3.1: Wildtype qHTS
Conditions: U2OS, BacMam KCNH2, thallium flux FluxOr; at 1.84 µM; hits give low values
Source text: Many antipsychotic drugs that inhibit the neurotransmitter dopamine also bind to hERG1 channel which might help explain their antipsychotic activity but also produces cardiac side effects. The discovery of the novel KCNH2 3.1 isoform offers a potential new target for the development of antipsychotic drugs without cardiac side effects. This proposal will use a high throughput thallium flux assay developed for KCNH2 to screen compounds that modulate the activity of KCNH2 3.1. The wild type KCNH2 channel will also be screened in parallel to help define the selective modulators of this KCNH2 3.1 potassium channel. The resulting compounds will be validated in electrophysiology experiments. The availability of animal models will allow future testing in vivo for effects on memory and other aspects of animal physiology linked with psychosis. NIH Chemical Genomics Center [NCGC] NIH Molecular Libraries Probe Centers Network [MLPCN] MLPCN Grant: MH096539 Assay Submitter (PI): James Barrow, Johns Hopkins University, Lieber Institute for Brain Development
U2OS cells were resuspended in cell media containing 10% fetal calf serum (FCS) at a concentration of 2 million cells / mL. […] A stimulation buffer was added to the plate and the second kinetic read (2 min) was obtained. The rate constant was calculated from the kinetic reads and normalized to the positive and negative DMSO controls.
On the % scale 0 is the no-effect control and ±100 the full control effect.

Structure (SMILES) | activity change
COc1ccccc1C(=O)Nc1ccnn1C1CCN(Cc2cc(C)c(C)cc2C)CC1 | active: -101%
